From patent US8648066B2 (Exelixis, Inc., priority 2009, dated 2014)
Some of these results come from one statement about several compounds together.

Molecular target: PI3Kα (Homo sapiens, UniProt P42336)
Test: PI3K biochemical assay (luciferase-luciferin ATP consumption)
Details: 1.5 nM enzyme, 1 μM ATP, 10 μM PIP2; read-out: IC50 for PI3Kα in this assay
Method: PI3Kα activity is measured as the percent of ATP consumed following the kinase reaction using luciferase-luciferin-coupled chemiluminescence. Reactions were conducted in 384-well white, medium binding microtiter plates (Greiner). Kinase reactions were initiated by combining test compounds, ATP, substrate (PIP2), and kinase in a 20 μL volume in a buffer solution. The standard PI3Kalpha assay buffer is composed 50 mM Tris, pH 7.5, 1 mM EGTA, 10 mM MgCl2, 1 mM DTT and 0.03% CHAPS. The standard assay concentrations for enzyme, ATP, and substrate are 1.5 nM, 1 μM, and 10 μM, respectively. The reaction mixture was incubated at ambient temperature for approximately 2 h. Following the kinase reaction, a 10 μL aliquot of luciferase-luciferin mix (Promega Kinase-Glo) was added and the chemiluminescence signal measured using a Victor2 plate reader (Perkin Elmer). Total ATP consumption was limited to 40-60% and IC50 values of control compounds correlate well with literature references. Substituting PI3Kα with PI3Kβ, PI3Kγ, or PI3Kδ, the inhibitory activity of the compounds for the other isoforms of I3K were measured.

IC50, ≥ 2000 nM:
CN(C)C(=O)c1cccc(-c2ccc3c(c2)CN(c2ccnc4ccccc24)CCO3)c1 [Example 134, N,N-dimethyl-3-(4-quinolin-4-yl-2,3,4,5-tetrahydro-1,4-benzoxazepin-7-yl)benzamide]
c1ccc2c(N3CCOc4ccc(-c5ccc6c(c5)CCO6)cc4C3)ccnc2c1 [Example 135, 7-(2,3-dihydro-1-benzofuran-5-yl)-4-quinolin-4-yl-2,3,4,5-tetrahydro-1,4-benzoxazepine]
c1ccc2c(N3CCOc4ccc(-c5ccc6nc(C7CCCCC7)[nH]c6c5)cc4C3)ccnc2c1 [Example 200, 7-(2-cyclohexyl-1H-benzimidazol-6-yl)-4-quinolin-4-yl-2,3,4,5-tetrahydro-1,4-benzoxazepine]
c1ccc2c(N3CCOc4ccc(-c5ccc6nc(C7CNC7)[nH]c6c5)cc4C3)ccnc2c1 [Example 201, 7-(2-azetidin-3-yl-1H-benzimidazol-6-yl)-4-quinolin-4-yl-2,3,4,5-tetrahydro-1H-benzoxazepine]
c1ccc2c(N3CCOc4ccc(-c5ccc6nc(C7CCCCN7)[nH]c6c5)cc4C3)ccnc2c1 (stereo not drawn) [Example 202, 7-(2-piperidin-2-yl-1H-benzimidazol-6-yl)-4-quinolin-4-yl-2,3,4,5-tetrahydro-1,4-benzoxazepine]
CC(C)c1nc2ccc(-c3ccc4c(c3)CN(c3ccnc5ccccc35)CCO4)cc2[nH]1 [Example 203, 7-[2-(1-methylethyl)-1H-benzimidazol-6-yl]-4-quinolin-4-yl-2,3,4,5-tetrahydro-1,4-benzoxazepine]
CC1(C)CCc2ncnc(N3CCOc4ccc(-c5cnc(Nc6ccccc6)c(NS(C)(=O)=O)c5)cc4C3)c2C1 [Example 629, N-{5-[4-(6,6-dimethyl-5,6,7,8-tetrahydroquinazolin-4-yl)-2,3,4,5-tetrahydro-1,4-benzoxazepin-7-yl]-2-(phenylamino)pyridin-3-yl}methanesulfonamide]
CC1(C)CCc2ncnc(N3CCOc4ccc(-c5cnc(OCc6ccccc6)c(NS(C)(=O)=O)c5)cc4C3)c2C1 [Example 631, N-{5-[4-(6,6-dimethyl-5,6,7,8-tetrahydroquinazolin-4-yl)-2,3,4,5-tetrahydro-1,4-benzoxazepin-7-yl]-2-[(phenylmethyl)oxy]pyridin-3-yl}methanesulfonamide]

Molecular target: mTOR/GbL/Raptor (mTORC1) (Homo sapiens, UniProt P42345)
Test: mTOR/GbL/Raptor (mTORC1) ELISA assay
Format: biochemical
Details: phosphorylation of 4E-BP1; 0.2 nM mTORC1, 10 μM ATP; read-out: IC50 in this assay (mTORC1 ELISA)
Method: The measurement of mTORC1 enzyme activity was performed in an ELISA assay format following the phosphorylation of 4E-BP1 protein. All experiments were performed in the 384-well format. Generally, 0.5 μL DMSO containing varying concentrations of the test Compound was mixed with 15 μL enzyme solution. Kinase reactions were initiated with the addition of 15 μL of substrates-containing solution. The assay conditions were as follows; 0.2 nM mTORC1, 10 μM ATP and 50 nM NHis-tagged 4E-BP1 in 20 mM Hepes, pH 7.2, 1 mM DTT, 50 mM NaCl, 10 mM MnCl2, 0.02 mg/mL BSA, 0.01% CHAPS, 50 mM β-glycerophosphate. Following an incubation of 120 minutes at ambient temperature, 20 μL of the reaction volume was transferred to a Ni-Chelate-coated 384-well plate. The binding step of the 4E-BP1 protein proceeded for 60 minutes, followed by washing 4 times each with 50 μL of Tris-buffered saline solution (TBS). Anti-phospho-4E-BP1 rabbit-IgG (20 μL, 1:5000) in 5% BSA-TBST (0.2% Tween-20 in TBS) was added and further incubated for 60 minutes. Incubation with a secondary HRP-tagged anti-IgG was similarly performed after washing off the primary antibody (4 washes of 50 μL). Following the final wash step with TBST, 20 μL of SuperSignal ELISA Femto (Pierce Biotechnology) was added and the luminescence measured using an EnVision plate reader.

IC50, ≥ 2000 nM:
COC(=O)Nc1nc2ccc(-c3ccc4c(c3)CN(c3ccnc5ccccc35)CCO4)cc2n1C [Example 117, methyl [1-methyl-6-(4-quinolin-4-yl-2,3,4,5-tetrahydro-1,4-benzoxazepin-7-yl)-1H-benzimidazol-2-yl]carbamate]
COCCOC(=O)Nc1nc2ccc(-c3ccc4c(c3)CN(c3ccnc5ccccc35)CCO4)cc2[nH]1 [Example 118, 2-(methyloxy)ethyl [6-(4-quinolin-4-yl-2,3,4,5-tetrahydro-1,4-benzoxazepin-7-yl)-1H-benzimidazol-2-yl]carbamate]
O=C(CCCN1CCCCC1)Nc1nc2ccc(-c3ccc4c(c3)CN(c3ccnc5ccccc35)CCO4)cc2[nH]1 [Example 120, 4-piperidin-1-yl-N-[6-(4-quinolin-4-yl-2,3,4,5-tetrahydro-1,4-benzoxazepin-7-yl)-1H-benzimidazol-2-yl]butanamide]
COC(=O)Nc1nc2ccc(-c3ccc4c(c3)CN(c3nccc5ccccc35)CCO4)cc2[nH]1 [Example 121, methyl [6-(4-isoquinolin-1-yl-2,3,4,5-tetrahydro-1,4-benzoxazepin-7-yl)-1H-benzimidazol-2-yl]carbamate]
COC(=O)Nc1nc2ccc(-c3ccc4c(c3)CN(c3ncccc3C)CCO4)cc2[nH]1 [Example 122, methyl {6-[4-(3-methylpyridin-2-yl)-2,3,4,5-tetrahydro-1,4-benzoxazepin-7-yl]-1H-benzimidazol-2-yl}carbamate]
CNC(=O)c1cccc(-c2ccc3c(c2)CN(c2nc(C)nc4cc(OC)ccc24)CCO3)c1 [Example 644, N-methyl-3-{4-[2-methyl-7-(methyloxy)quinazolin-4-yl]-2,3,4,5-tetrahydro-1,4-benzoxazepin-7-yl}benzamide]
CC[C@H]1CCc2c(nc(C)nc2N2CCOc3ccc(-c4cnc5nc([C@H](C)NC(=O)OCc6ccccc6)[nH]c5c4)cc3C2)C1 [Example 646, phenylmethyl [(1S)-1-(6-{4-[(7S)-7-ethyl-2-methyl-5,6,7,8-tetrahydroquinazolin-4-yl]-2,3,4,5-tetrahydro-1,4-benzoxazepin-7-yl}-1H-imidazo[4,5-b]pyridin-2-yl)ethyl]carbamate]
